Results are given in words; binding and its absence hold for the method and conditions named. Binding seen in cells or lysates may run through a third protein. Here binding means that the protein was enriched with, or labelled near, the bait; the list need not be complete. Tags and fused reporters may be left off the sequences shown.
T1: Strep/FLAG-tagged TTC30A A375V (human) (UniProt Q86WT1)
T1 sequence: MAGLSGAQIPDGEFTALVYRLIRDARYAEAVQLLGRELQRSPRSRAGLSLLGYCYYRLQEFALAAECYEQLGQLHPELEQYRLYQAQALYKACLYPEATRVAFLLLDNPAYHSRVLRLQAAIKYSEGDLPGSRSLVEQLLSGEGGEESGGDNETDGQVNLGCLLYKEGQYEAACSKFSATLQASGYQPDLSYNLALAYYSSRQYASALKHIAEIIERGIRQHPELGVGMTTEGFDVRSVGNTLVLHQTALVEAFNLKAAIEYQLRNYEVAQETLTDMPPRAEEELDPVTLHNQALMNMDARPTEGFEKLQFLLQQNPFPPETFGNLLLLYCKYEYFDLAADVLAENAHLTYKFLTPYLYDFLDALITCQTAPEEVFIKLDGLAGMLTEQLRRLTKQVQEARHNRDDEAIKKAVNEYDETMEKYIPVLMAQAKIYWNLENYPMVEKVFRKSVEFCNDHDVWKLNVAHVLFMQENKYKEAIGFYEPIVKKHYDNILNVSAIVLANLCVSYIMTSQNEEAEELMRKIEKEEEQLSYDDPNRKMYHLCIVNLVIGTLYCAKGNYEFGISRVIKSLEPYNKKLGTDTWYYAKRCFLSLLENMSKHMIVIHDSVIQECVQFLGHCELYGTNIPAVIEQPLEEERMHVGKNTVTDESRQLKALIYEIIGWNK

Sequences of proteins named here, by UniProt entry; tags and fusion partners are left off.
UniProt O00193: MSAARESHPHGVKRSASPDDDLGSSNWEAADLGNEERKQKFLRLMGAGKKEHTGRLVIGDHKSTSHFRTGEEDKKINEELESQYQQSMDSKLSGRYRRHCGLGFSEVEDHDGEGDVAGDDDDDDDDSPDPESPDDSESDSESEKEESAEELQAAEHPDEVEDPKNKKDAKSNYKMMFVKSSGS

T2: Strep/FLAG-tagged TTC30B wildtype (human) (UniProt Q8N4P2)
T2 sequence: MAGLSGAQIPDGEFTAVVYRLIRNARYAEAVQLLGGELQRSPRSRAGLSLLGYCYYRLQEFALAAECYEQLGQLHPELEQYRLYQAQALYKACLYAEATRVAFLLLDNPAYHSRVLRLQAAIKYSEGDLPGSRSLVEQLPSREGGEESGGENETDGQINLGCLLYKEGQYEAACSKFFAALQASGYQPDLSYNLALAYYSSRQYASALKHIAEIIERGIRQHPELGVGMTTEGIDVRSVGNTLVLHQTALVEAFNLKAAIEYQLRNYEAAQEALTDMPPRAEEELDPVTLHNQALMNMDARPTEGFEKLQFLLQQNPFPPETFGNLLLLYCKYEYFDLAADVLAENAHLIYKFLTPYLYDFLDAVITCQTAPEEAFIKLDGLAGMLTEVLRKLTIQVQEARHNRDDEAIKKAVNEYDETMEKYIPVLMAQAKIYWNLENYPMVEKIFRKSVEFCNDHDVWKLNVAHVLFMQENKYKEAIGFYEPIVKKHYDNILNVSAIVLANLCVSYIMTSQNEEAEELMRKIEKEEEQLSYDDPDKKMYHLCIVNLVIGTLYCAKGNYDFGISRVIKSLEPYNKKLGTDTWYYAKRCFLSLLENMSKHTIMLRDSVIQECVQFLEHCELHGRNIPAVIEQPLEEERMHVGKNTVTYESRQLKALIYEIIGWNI

T3: Strep/FLAG-tagged TTC30A wildtype (human) (UniProt Q86WT1)
T3 sequence: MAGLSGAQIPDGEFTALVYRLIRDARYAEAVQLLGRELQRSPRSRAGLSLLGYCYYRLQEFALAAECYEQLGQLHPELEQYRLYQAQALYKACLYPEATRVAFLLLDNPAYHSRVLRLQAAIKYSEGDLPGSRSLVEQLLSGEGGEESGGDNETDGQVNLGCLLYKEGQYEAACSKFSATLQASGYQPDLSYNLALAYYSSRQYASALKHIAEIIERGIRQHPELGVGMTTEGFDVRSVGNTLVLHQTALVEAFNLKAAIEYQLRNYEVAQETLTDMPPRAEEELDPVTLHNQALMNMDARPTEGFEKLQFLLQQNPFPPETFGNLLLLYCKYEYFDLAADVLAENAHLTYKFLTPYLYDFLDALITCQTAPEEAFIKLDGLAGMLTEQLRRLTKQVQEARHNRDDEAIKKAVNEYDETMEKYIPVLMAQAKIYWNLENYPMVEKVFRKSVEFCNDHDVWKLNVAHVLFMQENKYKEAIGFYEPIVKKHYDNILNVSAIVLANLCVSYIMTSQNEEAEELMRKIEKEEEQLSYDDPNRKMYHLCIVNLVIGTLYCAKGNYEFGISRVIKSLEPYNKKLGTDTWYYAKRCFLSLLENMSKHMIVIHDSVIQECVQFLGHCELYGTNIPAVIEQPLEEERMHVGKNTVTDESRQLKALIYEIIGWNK


Assays:
Assay in all cases: affinity purification with mass spectrometry; Strep/FLAG-tagged bait in lysate of transiently transfected HEK293T (1x TBS, 0.5% Nonidet-P40) on Strep-Tactin Superflow 1.5 h, three washes, Strep elution buffer; LC-MS/MS, label-free quantification, six biological replicates; Strep/FLAG-tagged RAF1 as control
[1] = target: T1, Strep/FLAG-tagged TTC30A A375V (human)
[2] = target: T2, Strep/FLAG-tagged TTC30B wildtype (human)
[3] = target: T3, Strep/FLAG-tagged TTC30A wildtype (human)

| binding [1] | binding [2] | binding [3] | Molecule |
| --- | --- | --- | --- |
| binds | binds | binds | SMAP (from UniProt O00193 1-183) |
| binds | binds | binds | RNPS1 (protein, UniProt Q15287 1-305) MDLSGVKKKSLLGVKENNKKSSTRAPSPTKRKDRSDEKSKDRSKDKGATKESSEKDRGRDKTRKRRSASSGSSSTRSRSSSTSSSGSSTSTGSSSGSSSSSASSRSGSSSTSRSSSSSSSSGSPSPSRRRHDNRRRSRSKSKPPKRDEKERKRRSPSPKPTKVHIGRLTRNVTKDHIMEIFSTYGKIKMIDMPVERMHPHLSKGYAYVEFENPDEAEKALKHMDGGQIDGQEITATAVLAPWPRPPPRRFSPPRRMLPPPPMWRRSPPRMRRRSRSPRRRSPVRRRSRSPGRRRHRSRSSSNSSR |
| binds | – | binds | HEATR3 (protein, UniProt Q7Z4Q2 1-680) MGKSRTKRFKRPQFSPTGDCQAEAAAAANGTGGEEDDGPAAELLEKLQHPSAEVRECACAGLARLVQQRPALPGLARRDAVRRLGPLLLDPSLAVRETAAGALRNLSACGGFEVCDDMVTKDIMTPLVALLKECSAGLDSNEMSLQEKKDQNRNSIENIANETVNVLWNICECSSRAVSIFNKEGCLEIVLKYLSRFPTNVDLAISVAYCLQTVTEDNPELLKSFSATALNMLESALLSPVSSMESLLLKTLVAGTIWNLKDIIPCKSQAEIINALLKILSEVLGMDAGEMVIQMKEAETQRLKTAAEAEEILENTNGDDLIEDDEMEGISHKRRVRRKTFVSDLLPPTDKELRETIALLTAQQTALEIIVNMCCNEDPSDDEWEELSSSDESDAFMENSFSECGGQLFSPLCLSHEVHTALTNYLIPKKIFEKTAFPNSIAVDLCSRNPTWKPLIRKMNTIQCRALFCLQSLVSLLDVEHLGGAAALQTLAQHLSQLLFSQPDFAKHVDFLEAISSALRALLQTMASKNISQCMTPDQLMTLCKAGIHSSNVGVRVNVVSILGITGSVLAKEDGTLETLKNIGCFLLEVTTKDPSLVVAGEALDALFDVFADGKEAERASIQIKLLSALKEFQPVFKMKIRKEGRGNYSTDQLCVLDNVKMNLRRFIAYQETVEKRLTS |
